# Measurements published in the supplement of paper PMC10849652.
# Sequences of proteins named here, by UniProt entry; tags and fusion partners are left off. A change or cut given only in a name is not applied to a line headed by its entry.
# UniProt P14866: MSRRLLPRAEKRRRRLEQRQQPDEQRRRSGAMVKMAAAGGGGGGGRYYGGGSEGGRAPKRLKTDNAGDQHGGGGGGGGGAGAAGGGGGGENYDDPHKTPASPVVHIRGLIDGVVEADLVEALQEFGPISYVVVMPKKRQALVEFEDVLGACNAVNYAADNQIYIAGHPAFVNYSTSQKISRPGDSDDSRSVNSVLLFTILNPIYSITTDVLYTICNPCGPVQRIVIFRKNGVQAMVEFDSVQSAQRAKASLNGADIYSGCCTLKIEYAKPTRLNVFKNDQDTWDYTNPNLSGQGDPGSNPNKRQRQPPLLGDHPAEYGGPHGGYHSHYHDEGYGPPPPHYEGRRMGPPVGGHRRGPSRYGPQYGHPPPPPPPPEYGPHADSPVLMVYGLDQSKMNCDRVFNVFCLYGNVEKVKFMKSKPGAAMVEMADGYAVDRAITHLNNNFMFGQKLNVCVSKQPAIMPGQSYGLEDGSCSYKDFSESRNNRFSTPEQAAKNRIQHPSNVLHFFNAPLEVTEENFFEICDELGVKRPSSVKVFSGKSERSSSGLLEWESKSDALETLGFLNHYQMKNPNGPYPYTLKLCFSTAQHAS
# UniProt Q0VDF9: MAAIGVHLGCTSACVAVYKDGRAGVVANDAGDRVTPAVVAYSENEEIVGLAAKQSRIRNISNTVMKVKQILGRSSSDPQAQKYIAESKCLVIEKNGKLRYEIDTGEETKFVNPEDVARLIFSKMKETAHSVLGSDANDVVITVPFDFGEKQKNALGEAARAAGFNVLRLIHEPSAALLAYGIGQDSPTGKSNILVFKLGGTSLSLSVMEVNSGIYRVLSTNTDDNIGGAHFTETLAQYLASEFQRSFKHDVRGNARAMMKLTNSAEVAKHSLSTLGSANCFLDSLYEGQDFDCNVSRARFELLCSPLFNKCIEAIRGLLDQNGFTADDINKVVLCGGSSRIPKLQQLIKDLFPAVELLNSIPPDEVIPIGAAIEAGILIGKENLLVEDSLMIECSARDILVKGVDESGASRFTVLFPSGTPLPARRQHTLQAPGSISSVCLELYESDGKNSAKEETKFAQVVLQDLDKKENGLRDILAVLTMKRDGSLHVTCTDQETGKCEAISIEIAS
# UniProt Q96JB3: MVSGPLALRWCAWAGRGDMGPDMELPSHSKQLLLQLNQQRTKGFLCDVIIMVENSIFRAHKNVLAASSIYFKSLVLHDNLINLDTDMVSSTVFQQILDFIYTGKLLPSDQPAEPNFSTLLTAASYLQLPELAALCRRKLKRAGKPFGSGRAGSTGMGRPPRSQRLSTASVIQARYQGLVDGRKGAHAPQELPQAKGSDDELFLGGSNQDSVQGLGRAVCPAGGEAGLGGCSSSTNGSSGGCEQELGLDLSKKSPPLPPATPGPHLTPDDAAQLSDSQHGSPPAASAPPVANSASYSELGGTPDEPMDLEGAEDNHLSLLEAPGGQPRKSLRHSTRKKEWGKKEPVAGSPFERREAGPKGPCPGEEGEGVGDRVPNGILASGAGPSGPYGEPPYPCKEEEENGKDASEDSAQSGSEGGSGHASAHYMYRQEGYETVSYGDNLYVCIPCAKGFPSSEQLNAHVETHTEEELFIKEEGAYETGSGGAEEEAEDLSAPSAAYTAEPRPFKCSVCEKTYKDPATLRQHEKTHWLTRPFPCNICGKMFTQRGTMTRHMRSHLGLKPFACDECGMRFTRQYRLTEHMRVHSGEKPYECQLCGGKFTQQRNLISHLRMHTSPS
# UniProt P00492: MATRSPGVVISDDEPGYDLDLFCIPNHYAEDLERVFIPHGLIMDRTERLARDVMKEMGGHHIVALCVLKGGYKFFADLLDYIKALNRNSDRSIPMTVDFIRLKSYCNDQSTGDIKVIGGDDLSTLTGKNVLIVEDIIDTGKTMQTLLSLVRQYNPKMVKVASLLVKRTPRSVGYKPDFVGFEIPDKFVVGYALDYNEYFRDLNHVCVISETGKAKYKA
# UniProt O60725, whole entry, looked up: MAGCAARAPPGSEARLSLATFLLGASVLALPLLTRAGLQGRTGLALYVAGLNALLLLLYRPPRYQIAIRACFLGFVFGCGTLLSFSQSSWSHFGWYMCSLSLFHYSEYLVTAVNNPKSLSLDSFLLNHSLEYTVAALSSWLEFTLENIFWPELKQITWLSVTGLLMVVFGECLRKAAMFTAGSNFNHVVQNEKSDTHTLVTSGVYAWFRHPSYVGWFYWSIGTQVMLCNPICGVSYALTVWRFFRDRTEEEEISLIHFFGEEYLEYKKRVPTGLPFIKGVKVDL
# UniProt Q9UMF0: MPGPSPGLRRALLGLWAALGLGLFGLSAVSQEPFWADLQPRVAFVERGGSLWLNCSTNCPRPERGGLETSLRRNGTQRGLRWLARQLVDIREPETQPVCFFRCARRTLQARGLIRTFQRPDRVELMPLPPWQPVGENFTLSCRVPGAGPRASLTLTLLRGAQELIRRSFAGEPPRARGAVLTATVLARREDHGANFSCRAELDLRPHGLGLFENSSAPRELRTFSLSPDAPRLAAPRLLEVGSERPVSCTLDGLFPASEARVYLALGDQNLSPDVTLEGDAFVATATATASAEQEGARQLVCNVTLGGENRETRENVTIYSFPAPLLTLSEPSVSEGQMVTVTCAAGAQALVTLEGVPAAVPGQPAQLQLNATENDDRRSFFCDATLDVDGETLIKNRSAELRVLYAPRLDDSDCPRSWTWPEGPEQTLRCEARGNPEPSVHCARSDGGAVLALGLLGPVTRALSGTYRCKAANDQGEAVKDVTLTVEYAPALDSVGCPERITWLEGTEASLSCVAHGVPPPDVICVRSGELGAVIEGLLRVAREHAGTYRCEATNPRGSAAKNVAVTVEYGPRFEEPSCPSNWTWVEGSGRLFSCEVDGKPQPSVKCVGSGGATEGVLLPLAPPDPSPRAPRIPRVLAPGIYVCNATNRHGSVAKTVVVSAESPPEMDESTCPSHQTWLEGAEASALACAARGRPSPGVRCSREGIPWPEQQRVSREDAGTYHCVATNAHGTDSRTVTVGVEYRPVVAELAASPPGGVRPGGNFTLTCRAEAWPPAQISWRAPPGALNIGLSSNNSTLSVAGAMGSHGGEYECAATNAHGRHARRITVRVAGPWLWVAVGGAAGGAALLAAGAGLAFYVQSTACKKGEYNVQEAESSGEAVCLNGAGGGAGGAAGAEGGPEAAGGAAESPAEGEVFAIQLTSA
# UniProt P52272: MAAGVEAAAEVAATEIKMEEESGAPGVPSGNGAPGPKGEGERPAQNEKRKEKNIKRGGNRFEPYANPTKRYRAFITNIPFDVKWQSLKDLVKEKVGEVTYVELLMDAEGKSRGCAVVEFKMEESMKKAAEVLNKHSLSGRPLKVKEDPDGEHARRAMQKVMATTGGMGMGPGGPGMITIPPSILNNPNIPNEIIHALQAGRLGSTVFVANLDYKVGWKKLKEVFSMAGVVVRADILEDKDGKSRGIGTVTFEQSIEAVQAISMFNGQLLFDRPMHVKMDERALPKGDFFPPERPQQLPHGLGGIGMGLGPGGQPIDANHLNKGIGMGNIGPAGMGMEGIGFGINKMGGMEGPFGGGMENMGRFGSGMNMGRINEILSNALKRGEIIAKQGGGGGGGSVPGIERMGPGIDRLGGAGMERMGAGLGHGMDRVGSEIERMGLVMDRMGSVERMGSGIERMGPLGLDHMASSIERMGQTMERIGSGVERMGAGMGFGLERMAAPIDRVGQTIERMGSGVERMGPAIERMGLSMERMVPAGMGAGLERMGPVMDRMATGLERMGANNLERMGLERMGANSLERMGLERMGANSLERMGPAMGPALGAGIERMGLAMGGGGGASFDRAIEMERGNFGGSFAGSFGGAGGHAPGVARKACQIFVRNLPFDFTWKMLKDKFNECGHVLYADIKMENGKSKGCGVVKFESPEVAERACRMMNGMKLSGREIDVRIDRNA
# This is one part of the list. Residues, ends and D or L forms follow the SMILES beside them. *: point of attachment. Cbz = O=C(OCc1ccccc1)*
# Legend:
# Experiment in all cases: log2 fold change, soluble protein after heating vs DMSO (PISA); higher = thermal stabilisation; K562 cells, 10 uM, 30 min; active = over 0.2 and 3.5 SD of the protein, either way, in both replicates (recomputed)
# erlotinib = compound: C#Cc1cccc(Nc2ncnc3cc(OCCOC)c(OCCOC)cc23)c1 [erlotinib]
# In short: (§1)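 K562 cells at 2×10^6 cells/mL were exposed to 10 μM compound for 30 min, then aliquots were heated for 3 min across 48°C-58°C, pooled, and extracted in PBS containing 0.5% NP-40 at 4°C. The supernatant after 21,000xg for 90 min was taken as soluble protein and measured by TMTpro 16plex LC-MS/MS with channel sums equalised. Thermal stability is reported relative to control samples, with values from duplicates. Fold changes are given on a log2 scale.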
# [1] = compound: C/C(=N\NC(=O)C1=CC(=CC=C1)S(=O)(=O)N2CCOCC2)/C3=C(C=CC(=C3)Cl)O
# In short: as §1
# [2] = compound: C1=CC(=C(C=C1Cl)C2=NC3=NC=CN=C3C(=N2)NC4=CC=NC=C4)F
# In short: as §1
# [3] = compound: C1=CC(=CC=C1C2=NC3=C(N2)C=C(C=C3)C(=O)N)OC4=CC=C(C=C4)Cl
# In short: as §1
# [4] = compound: C1=CC2=C(C=CC(=C2)/C=C\3/C(=O)NC(=NCC4=CC=CS4)S3)N=C1
# In short: as §1
# [5] = compound: C1=CC2=NC=CN=C2C=C1/C=C/3\C(=O)NC(=O)S3
# In short: as §1
# [6] = compound: C1=CC=C(C=C1)C2=NC(=C(N2)C3=CC=NC=C3)C4=CC(=C(C=C4)Cl)O
# In short: as §1
# [7] = compound: C1=CC=C2C(=C1)C3=NNC4=CC=CC(=C43)C2=O
# In short: as §1
# [8] = compound: C1CCN(C1)C(=O)NC2=CC=CC(=C2)NC3=NC=C(C(=N3)NCCC4=CN=CN4)Br
# In short: as §1
# [9] = compound: C1CN(CCC1(CC2=CC=C(C=C2)Cl)N)C3=NC=NC4=C3C=CN4
# In short: as §1
# IRAK-1-4 Inhibitor I = compound: C1COCCN1CCN2C3=CC=CC=C3N=C2NC(=O)C4=CC(=CC=C4)[N+](=O)[O-] [IRAK-1-4 Inhibitor I]
# In short: as §1
# ibrutinib = compound: C=CC(=O)N1CCC[C@@H](n2nc(-c3ccc(Oc4ccccc4)cc3)c3c(N)ncnc32)C1 [ibrutinib]
# In short: as §1
# [10] = compound: CC(=O)c1cnc2ccc(-c3cc(Cl)c(O)c(Cl)c3)nc2c1N[C@H]1CC[C@H](CN(C)C)CC1
# In short: as §1
# ralimetinib = compound: CC(C)(C)Cn1c(N)nc2ccc(-c3[nH]c(C(C)(C)C)nc3-c3ccc(F)cc3)nc21 [ralimetinib]
# In short: as §1
# [11] = compound: CC(C)(O)CC(=O)NCCn1ccc2ncnc(Nc3ccc(Oc4cccc(C(F)(F)F)c4)c(Cl)c3)c21
# In short: as §1
# [12] = compound: CC(C)C1=C2N=C(C=C(N2N=C1)NCC3=CC=CC=C3)NCCCCCCN
# In short: as §1
# [13] = compound: CC(C)C[C@@H](C=O)NC(=O)[C@H](CC(C)C)NC(=O)[C@H](CC(C)C)NC(=O)OCc1ccccc1
# In short: as §1
# pinometostat = compound: CC(C)N(C[C@H]1O[C@@H](n2cnc3c(N)ncnc32)[C@H](O)[C@@H]1O)[C@H]1C[C@@H](CCc2nc3cc(C(C)(C)C)ccc3[nH]2)C1 [pinometostat]
# In short: as §1
# [14] = compound: CC1=C(C2=C(C=C1)C(=O)C3=CC=CC=C3N2CCCN)C
# In short: as §1
# [15] = compound: CC1=C(C(CC(=O)N1)C2=CC=C(C=C2)C(F)(F)F)C(=O)NC3=C(C=C4C(=C3)C=NN4)F
# In short: as §1
Target,log2 fold change (erlotinib),log2 fold change [1],log2 fold change [2],log2 fold change [3],log2 fold change [4],log2 fold change [5],log2 fold change [6],log2 fold change [7],log2 fold change [8],log2 fold change [9],log2 fold change (IRAK-1-4 Inhibitor I),log2 fold change (ibrutinib),log2 fold change [10],log2 fold change (ralimetinib),log2 fold change [11],log2 fold change [12],log2 fold change [13],log2 fold change (pinometostat),log2 fold change [14],log2 fold change [15]
HNRNPL (UniProt P14866),inactive: 0.086,inactive: -0.044,inactive: -0.217,inactive: 0.171,inactive: -0.103,inactive: 0.115,inactive: -0.001,inactive: -0.034,inactive: 0.072,inactive: -0.177,inactive: -0.198,inactive: 0.039,inactive: -0.051,inactive: 0.067,inactive: 0.059,inactive: -0.268,inactive: 0.396,inactive: 0.156,inactive: -0.152,–
HSPA14 (UniProt Q0VDF9),inactive: 0.048,inactive: 0.062,inactive: -0.06,inactive: -0.026,inactive: 0.064,inactive: 0.015,inactive: -0.021,inactive: 0.014,inactive: -0.046,inactive: -0.18,inactive: -0.086,inactive: -0.059,inactive: -0.035,inactive: 0.05,inactive: -0.046,inactive: -0.213,inactive: 0.076,inactive: 0.163,inactive: -0.002,inactive: 0.002
HIC2 (UniProt Q96JB3),inactive: 0.128,inactive: 0,inactive: -0.17,inactive: 0.028,inactive: -0.159,inactive: -0.08,inactive: 0.012,inactive: -0.266,inactive: -0.023,inactive: -0.09,inactive: -0.073,inactive: 0.123,inactive: 0.024,inactive: 0.218,inactive: 0.065,inactive: -0.07,inactive: -0.03,inactive: 0.143,inactive: 0.088,–
HPRT1 (UniProt P00492),inactive: -0.003,inactive: 0.016,inactive: 0.057,inactive: 0.07,inactive: -0.057,inactive: 0.037,inactive: 0.022,inactive: -0.037,inactive: 0.021,inactive: 0.076,inactive: 0.016,inactive: 0.022,inactive: 0.008,inactive: -0.007,inactive: -0.01,inactive: 0.08,inactive: -0.005,inactive: -0.038,inactive: -0.002,inactive: 0.043
ICMT (UniProt O60725),inactive: 0.059,inactive: -0.081,inactive: 0.015,inactive: -0.001,inactive: 0.214,inactive: -0.064,inactive: 0.122,inactive: -0.038,inactive: -0.206,inactive: -0.032,inactive: 0.039,inactive: 0.182,inactive: 0.248,inactive: 0.163,inactive: -0.032,active: -0.472,inactive: -0.051,inactive: -0.02,inactive: 0.147,–
ICAM5 (UniProt Q9UMF0),inactive: 0.087,inactive: 0.046,inactive: -0.043,inactive: -0.079,inactive: 0.279,inactive: -0.133,inactive: -0.1,inactive: 0.122,inactive: -0.091,inactive: 0.188,inactive: 0.045,inactive: -0.123,inactive: -0.143,inactive: 0.034,inactive: 0.118,inactive: -0.006,inactive: 0.043,inactive: -0.03,inactive: 0.079,inactive: 0.044
HSPA8 (UniProt E9PK54),inactive: -0.008,inactive: 0,inactive: -0.346,inactive: 0.032,inactive: 0,inactive: 0.034,inactive: -0.211,inactive: -0.095,inactive: -0.056,inactive: -0.158,inactive: -0.051,inactive: -0.012,inactive: 0.015,inactive: -0.161,inactive: 0.058,inactive: 0.141,inactive: 0.074,inactive: 0.001,inactive: -0.262,–
HNRNPM (UniProt P52272),inactive: 0.042,inactive: -0.044,inactive: -0.287,inactive: 0.113,inactive: 0.007,inactive: 0.107,inactive: -0.028,inactive: 0.037,inactive: 0,inactive: -0.184,inactive: -0.156,inactive: 0.004,inactive: -0.003,inactive: 0.16,inactive: -0.001,inactive: -0.18,inactive: 0.231,inactive: 0.308,inactive: -0.009,inactive: -0.009
